In PubChem BioAssay AID1347076 (National Center for Advancing Translational Sciences (NCATS), 2019):
Hit rate of the full screen: of about 400,000 compounds, about 13,000 (3.2%) were called active. The shares of active, inactive and inconclusive entries below differ from those in the screen. Calls follow the shape of the dose curve; as a rule, active = well fitted cell-killing curve with a large enough effect; inconclusive = small, poorly fitted or top-dose-only effect, or effect the other way; inactive = flat fitted curve, though single readings scatter. Potencies of inconclusive entries are doubtful fits and often do not repeat.

Experiment: qHTS assay for MDR1-selective chemotherapeutics: Primary screen using the drug-selected MDR subline cells KB-V1; also: nearly all actives have a fitted effect of over 60% in size
Conditions: KB-V1 MDR cells viability, CellTiter-Glo, 72 h; activity change, negative = cytotoxicity: at 46.1 µM (top of the series)
Summary of the method: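 qHTS viability screen in drug-selected KB-V1 MDR cells: 72 h compound treatment at 37 degrees C, ATP luminescence end point.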
% is scaled to controls: 0 for no effect and ±100 for the full control effect; potency is read from the fitted curve at half-maximal effect.

Row | Structure (SMILES) | Potency | activity change, negative = cytotoxicity
1 | O=C(Cn1cnc2ccccc21)Nc1ccccc1-c1ccccc1 | inconclusive: 18.4 µM [cytotoxic, partial curve] | –
2 | CCn1c(=O)cc(SCC(=O)N2CCN(Cc3ccc4c(c3)OCO4)CC2)c2ccccc21 | inconclusive: 29.1 µM [cytotoxic, single point] | –
3 | COc1cc(OC)cc(C(=O)NCc2cccnc2)c1 | inconclusive: 0.731 µM [rising, full curve] | –
4 | Cc1ccc(NC(=O)NCc2c(C)nn(C)c2C)cc1Cl | inconclusive: 29.1 µM [cytotoxic, single point] | –
5 | O=C(Cc1ccc(-c2ccccc2)cc1)NCc1ccccc1 | active: 0.291 µM | –
6 | COC(=O)[C@H](CC(C)C)NC(=O)NC1CCCCC1C (stereo partly drawn) | – | inactive: -17.7%
7 | COc1cc(Cl)c(C)cc1NC(=O)CSC | inconclusive: 5.8 µM [rising, partial curve, poor fit] | –
8 | CC(=O)Nc1ccc(Nc2cc(C)nc3c(-c4ccc(Cl)cc4)c(C)nn23)cc1 | inconclusive: 6.51 µM [cytotoxic, partial curve] | –
9 | COc1cccc2cc(C(=O)N3CCc4ccccc4C3)c(=O)oc12 | – | inactive: -15.6%
10 | CC(C)CCN1C(=O)c2ccc(C(=O)Nc3cc(C(=O)O)cc(C(=O)O)c3)cc2C1=O | inconclusive: 10.3 µM [rising, partial curve] | –
11 | COc1ccc(OC)c(CNc2nc3ccccc3n2CCN2CCCCC2)c1 | active: 4.11 µM | –
12 | CCOc1ccc(N=C2NC(=O)S/C2=C\c2ccc(N(C)C)cc2)cc1 | active: 20.6 µM | –
13 | NC(=O)NC(=O)C(Nc1ccc(N2CCCCC2)cc1)c1ccccc1 (stereo not drawn) | inconclusive: 16.4 µM [cytotoxic, single point] | –
14 | O=C(CN1C(=O)CSc2ccc(S(=O)(=O)N3CCCCC3)cc21)NCc1ccc(F)cc1Cl | – | inactive: -14%
15 | COc1cccc(-c2nn(-c3ccccc3)cc2/C=C(\C#N)C(=O)NCCCn2ccnc2)c1 | inconclusive: 5.17 µM [cytotoxic, partial curve, poor fit] | –
16 | CC(=O)Nc1ccc(C(=O)Nc2ccc(S(=O)(=O)NCC3CCCO3)cc2)cc1 (stereo not drawn) | – | inactive: -0.781%
17 | COC(=O)c1cc(Cl)cc2c(C)c(C3(O)CCCCC3)[nH]c12 | inconclusive: 14.6 µM [rising, partial curve] | –
18 | Cn1c(CNC(=O)CNC(=O)Cc2ccccc2)cc(=O)n(C)c1=O | inconclusive: 23.1 µM [rising, partial curve] | –
19 | CCOc1ccc(C2NC(=O)NC(C)=C2C(=O)OCc2ccccc2)cc1 (stereo not drawn) | inconclusive: 29.1 µM [cytotoxic, single point] | –
20 | CCOc1ccc(C(=O)C(C)OC(=O)C2CCN(c3ccc(C(F)(F)F)cn3)CC2)cc1 (stereo not drawn) | inconclusive: 29.1 µM [cytotoxic, single point] | –
21 | COc1ccc(-c2nc(-c3cccc(C)c3)nc(N3CCN(C)CC3)c2C#N)cc1 | active: 4.61 µM | –
22 | O=C1CCC(C(=O)OCc2cc(Cl)ccc2OC(F)F)N1 (stereo not drawn) | inconclusive: 18.4 µM [rising, partial curve, poor fit] | –

A stretch from further up:
Row | Structure (SMILES) | Potency | activity change, negative = cytotoxicity
13 | NC(=O)NC(=O)C(Nc1ccc(N2CCCCC2)cc1)c1ccccc1 (stereo not drawn) | inconclusive: 16.4 µM [cytotoxic, single point] | –
14 | O=C(CN1C(=O)CSc2ccc(S(=O)(=O)N3CCCCC3)cc21)NCc1ccc(F)cc1Cl | – | inactive: -14%
15 | COc1cccc(-c2nn(-c3ccccc3)cc2/C=C(\C#N)C(=O)NCCCn2ccnc2)c1 | inconclusive: 5.17 µM [cytotoxic, partial curve, poor fit] | –

Additional entries follow:

Row | Structure (SMILES) | Potency | activity change, negative = cytotoxicity
23 | CC1C(=O)N(Cc2cn(CC3CCCCC3)nn2)CCS(=O)(=O)N1Cc1ccc(-c2ccccc2)cc1 (stereo not drawn) | inconclusive: 16.4 µM [cytotoxic, partial curve, poor fit] | –
24 | COc1ccc(CCN(C(=O)C(F)(F)F)C(C(=O)NC2CCCC2)c2cccs2)cc1 (stereo not drawn) | inconclusive: 2.31 µM [cytotoxic, full curve, poor fit] | –
25 | CCc1ccccc1NC(=O)CSc1nnc(-c2cc(C)[nH]n2)n1N | inconclusive: 29.1 µM [rising, single point] | –
26 | CCCCCn1c(=O)[nH]c2cc(C(=O)N3CCN(c4ccc(F)cc4)CC3)ccc2c1=O | inconclusive: 2.91 µM [cytotoxic, full curve] | –
27 | O=S(=O)(NCC(Nc1ccccc1)c1ccccc1)c1ccc(Cl)cc1 (stereo not drawn) | active: 20.6 µM | –
28 | CCN(C(=O)CSc1nc(C)nc2sc(C)c(C)c12)c1ccc(F)cc1 | – | inactive: 4.7%
29 | Nc1[nH][nH]c(=O)c1N=Nc1ccccc1 | inconclusive: 32.6 µM [cytotoxic, single point] | –
30 | CCc1ccc(NC(=O)CNC(=O)c2nn(-c3ccc(OC)cc3)c(=O)c3ccccc23)cc1 | inconclusive: 2.31 µM [cytotoxic, partial curve, poor fit] | –
31 | Cn1c(/C=C/c2ccc(Br)cc2)c([N+](=O)[O-])c(=O)n(C)c1=O | inconclusive: 32.6 µM [cytotoxic, single point] | –
32 | ClN=C1C=CC=CC1=NCl | – | inactive: -10.8%
33 | CC(C)CCc1noc(CN2CCC(CCN3CCCC3=O)CC2)n1 | inconclusive: 23.1 µM [cytotoxic, single point] | –
34 | COc1ccc(C(=O)c2c[nH]c(C(=O)N=CN(C)C)c2)cc1 | – | inactive: -7.64%
35 | Cc1ccccc1NS(=O)(=O)c1ccc(C(=O)NCc2ccccc2CN2CCCC2)cc1 | inconclusive: 11.6 µM [cytotoxic, partial curve] | –
36 | O=C(Nc1cccc(S(=O)(=O)NCc2ccco2)c1)c1cccc(Cl)c1 | – | inactive: 3.1%
37 | CS(=O)(=O)N(CCc1ccccc1)CC(=O)N1CCN(Cc2ccccc2)CC1 | inconclusive: 29.1 µM [cytotoxic, single point] | –
38 | COC(=O)c1sc(N2C(=O)C(O)=C(C(=O)c3ccc(C)o3)C2c2ccco2)nc1C (stereo not drawn) | inconclusive: 18.4 µM [cytotoxic, partial curve, poor fit] | –
39 | O=C(c1ccccc1)C1CCN(c2ncccc2[N+](=O)[O-])CC1 | inconclusive: 9.2 µM [cytotoxic, partial curve] | –
40 | O=C(COn1nnc2ccc(S(=O)(=O)N3CCOCC3)cc21)NCCc1ccccc1 | inconclusive: 18.4 µM [cytotoxic, single point] | –
41 | O=C1NC[C@H](Cc2ccccc2)N(CC2CCN(CCC34CC5CC(CC(C5)C3)C4)CC2)C1=O | – | inactive: -4.96%
42 | Cc1nn(CCC(=O)NC(C)C)c(=O)c2nn(-c3ccccc3)c(C)c12 | inconclusive: 29.1 µM [rising, single point] | –
43 | COc1cc(C(O)c2nc(-c3ccccc3)cs2)ccc1F (stereo not drawn) | inconclusive: 25.9 µM [cytotoxic, single point] | –
